{"source": "PubChem BioAssay AID1508597 (Cure First, 2020)", "assay": "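Survival screen with siRNA in ovarian cancer cells derived from patients, with or without rucaparib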 (primary screen)", "cells": "human ovarian carcinoma lines grown from tumours: OCI-P5x (papillary serous) and OCI-C5x (clear cell)", "reagent": "siRNA pool against human genes, 1.25 pmol siRNA per well", "duration": "72 h or 96 h, depending on the cell culture", "treatment": "rucaparib 20 µM (about IC30) or vehicle, present until read-out", "rucaparib or vehicle": "Rucaparib", "cell line": "OCI-P5x (serous)", "measurement": "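Luminescent ATP-based viability assay read 72 or 96 h after transfection, depending on culture, given as normalised percent viability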", "direction": "viability, normalised: higher = more viable cells remaining", "rule for the call": "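Active when normalised viability falls below 80 percent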", "meaning of the calls": "active = viability under 80%; inactive = viability 80% or more", "note": "This is an unselected part of the about 2,100 reagents, in one setting of the screen. 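Calls flag viability under 80% in either arm, not effects specific to rucaparib; the reference for percent is not stated.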 A number with no mark means an inactive call. Some reagents were tested in more than one well and are listed for each. Reagent sequences are not shown. Not given: the 100% reference."}
{"Gene":"FLT4 (GeneID 2324)","technical replicate":"1","viability, normalised (%)":"57.8 (active)"}
{"Gene":"FLT4 (GeneID 2324)","technical replicate":"1","viability, normalised (%)":129}
{"Gene":"FLT4 (GeneID 2324)","technical replicate":"2","viability, normalised (%)":119}
{"Gene":"FLT4 (GeneID 2324)","technical replicate":"2","viability, normalised (%)":"71.9 (active)"}
{"Gene":"FLT4 (GeneID 2324)","technical replicate":"3","viability, normalised (%)":121}
{"Gene":"FLT4 (GeneID 2324)","technical replicate":"3","viability, normalised (%)":"65.3 (active)"}

Targets above whose gene name starts with F or f (6):
{"Gene":"FLT4 (GeneID 2324)","technical replicate":"1","viability, normalised (%)":"57.8 (active)"}
{"Gene":"FLT4 (GeneID 2324)","technical replicate":"1","viability, normalised (%)":129}
{"Gene":"FLT4 (GeneID 2324)","technical replicate":"2","viability, normalised (%)":119}
{"Gene":"FLT4 (GeneID 2324)","technical replicate":"2","viability, normalised (%)":"71.9 (active)"}
{"Gene":"FLT4 (GeneID 2324)","technical replicate":"3","viability, normalised (%)":121}
{"Gene":"FLT4 (GeneID 2324)","technical replicate":"3","viability, normalised (%)":"65.3 (active)"}

The results go on.
{"Gene":"CDCA8 (GeneID 55143)","technical replicate":"1","viability, normalised (%)":85.4}
{"Gene":"CDCA8 (GeneID 55143)","technical replicate":"2","viability, normalised (%)":81.6}
{"Gene":"CDCA8 (GeneID 55143)","technical replicate":"3","viability, normalised (%)":"67.7 (active)"}
{"Gene":"ERCC6 (GeneID 2074)","technical replicate":"1","viability, normalised (%)":"68.1 (active)"}
{"Gene":"ERCC6 (GeneID 2074)","technical replicate":"2","viability, normalised (%)":"64.8 (active)"}
{"Gene":"ERCC6 (GeneID 2074)","technical replicate":"3","viability, normalised (%)":"64.9 (active)"}
